Our source for the survivor count and T/C values is PubChem BioAssay AID248 (DTP/NCI, 2004).

For the assay, the system named is L1210 leukemia ip in BDF1 mice, survival T/C. In words: NCI In Vivo Anticancer Drug Screen. Data for tumor model L1210 Leukemia (intraperitoneal) in B6D2F1 (BDF1) mice. The conditions noted are these: T/C endpoint: mean survival time, higher T/C = longer survival.
[1] abbreviates: dose: 200.0 mg/kg/injection, schedule: Q01DX009 (ip), vehicle: saline.
Where [2] appears, read: dose: 400.0 mg/kg/injection, schedule: Q01DX009 (ip), vehicle: saline.

The list does not hold the whole screen: it gathers tests that were run many times, whatever their T/C, doses with no T/C, and many T/C values between a quarter and a half above the control. Other doses and runs of a compound stand elsewhere. T/C: endpoint of the treated group in % of that of the vehicle group. Some doses have a count of surviving animals in place of a T/C: the source holds a T/C of zero for them, seemingly a mark for toxic or unscored doses. Some survivor counts are full or nearly so, which does not show that the dose was tolerated: survival well below the control is almost never listed, so the zero probably covers shortened survival too. Counts of survivors are from the toxicity check (mostly the fifth day) where no day follows; animals may have died later. Schedule codes are those of the source, read here as Q, the interval in days (D) or hours (H), X, the number of doses. Some doses were run more than once; the values are given in rising order. Some schedule codes hold Z or #, which are not explained here. For survival time, this PubChem deposit counts one and a half times the control or more as active, and values a quarter to a half above the control carry no call in these data; other NCI protocols may use other cut-offs. Some T/C values carry the count of animals alive at the toxicity check (mostly the fifth day); without a count, all were alive then.

As to `CC(=O)NCCSC(=O)C(=O)SCCNC(C)=O`, the survivor count runs as follows: (dose: 200.0 mg/kg/injection, schedule: Q01DX Z (ip), vehicle: saline) 3 of 6; (dose: 300.0 mg/kg/injection, schedule: Q01DX001 (ip), vehicle: saline) 0 of 6 and 2 of 6; (dose: 450.0 mg/kg/injection, schedule: Q01DX001 (ip), vehicle: saline) 0 of 6. With `OC1CN(C2CCCCC2)C1`, the survivor count is reported as 1 of 6 (dose: 200.0 mg/kg/injection, schedule: Q04DX003 (ip), vehicle: saline) and 0 of 6 (dose: 400.0 mg/kg/injection, schedule: Q04DX003 (ip), vehicle: saline). In the case of `COc1cc2cc3c4cc(OC)c(OC)cc4cc[n+]3c(/C=C/c3cccc([N+](=O)[O-])c3)c2cc1OC`, the T/C (dose: 400.0 mg/kg/injection, schedule: Q04DX002 (ip), vehicle: other) was 143 % of control. Under “dose: 800.0 mg/kg/injection, schedule: Q04DX002 (ip), vehicle: carboxymethylcellulose (CMC)”, the survivor count is reported as 2 of 6. As for `O=C1C2=C(C(=O)C3=C1C1CCC3C1)C1CCC2C1`, the survivor count (dose: 200.0 mg/kg/injection, schedule: Q04DX002 (ip), vehicle: saline with Tween-80) was 3 of 3. Turning to `CN(c1ccccc1)S(=O)(=O)c1ccc(NC(=O)CBr)cc1`, for the setting “dose: 150.0 mg/kg/injection, schedule: Q01DX001 (ip), vehicle: Klucel (hydroxypropylcellulose) (HPC)”, the survivor count is 0 of 6. For `CCOC(=O)c1cnn(-c2ccccc2)c1N`, the survivor count is reported as 2 of 6 under setting [1] and 0 of 6 under setting [2]. On to `COc1cc([N+](=O)[O-])c2nc(C(=O)O)ccc2c1`, for which the T/C (dose: 400.0 mg/kg/injection, schedule: Q01DX001 (ip), vehicle: saline) is 125 % of control [3 of 4 alive]. Regarding `CC1(C)N=C(N)N=C(N)N1c1ccc(OCCCNC(=O)Nc2cccc(S(=O)(=O)F)c2)c(Cl)c1`, the T/C reads like this: (dose: 100.0 mg/kg/injection, schedule: Q01DX009 (ip), vehicle: saline) 130 % of control; under setting [1], 135 % of control. Moreover, the survivor count under setting [2] was 2 of 6.
